At least one structure is not confirmed: it was looked up by name or label, or the drawing left a doubt. Starred links: 1 amine or outer side, 2 acyl side, 3 side chain; linkers in the order of their positions; H or OH if unused. Non-standard residues stand in square brackets, D forms with d. Residues, ends and D or L forms follow the SMILES beside them. *: point of attachment. Ala(piperidin-4-yl) = O=C([C@H](CC1CCN([*:3])CC1)N[*:1])[*:2]; Malonyl(2,2-Me2,histaminyl) = CC(C)(C(=O)NCCc1cnc[nH]1)C(=O)*; Oic = O=C(O)[C@@H]1C[C@@H]2CCCC[C@@H]2N1; Phe(4-Br) = N[C@@H](Cc1ccc(Br)cc1)C(=O)O; Aib = CC(C)(N)C(=O)O; Bn = c1ccc(C*)cc1
Molecular target: T1, human Apelin receptor (Homo sapiens, UniProt P35414)
T1 construct: host or cells: CHO-K1 cells
Assay: β-arrestin accumulation assay, functional agonism of human Apelin receptors
Type: cell-based
Details: CHO-K1 cells overexpressing human Apelin receptor and β-arrestin; Emax only reported for active compounds
Description: β-arrestin assay. […] After 16 h incubation at 37° C. media was removed and cells were incubated at 37° C. for 90 min in serum free media containing increasing concentrations of test agonist. The assay reaction was stopped by adding detection reagent (DiscoveRx) and incubation for 60 min in the dark. Levels of receptor activation were then measured on a PheraStar fluorescence plate reader (BMG LabTech) and EC50 values were determined using Graphpad Prism.

Amino acid sequences for entries named in this document (tags omitted). A change or cut given only in a name is not applied to a line headed by its entry.
UniProt P35414: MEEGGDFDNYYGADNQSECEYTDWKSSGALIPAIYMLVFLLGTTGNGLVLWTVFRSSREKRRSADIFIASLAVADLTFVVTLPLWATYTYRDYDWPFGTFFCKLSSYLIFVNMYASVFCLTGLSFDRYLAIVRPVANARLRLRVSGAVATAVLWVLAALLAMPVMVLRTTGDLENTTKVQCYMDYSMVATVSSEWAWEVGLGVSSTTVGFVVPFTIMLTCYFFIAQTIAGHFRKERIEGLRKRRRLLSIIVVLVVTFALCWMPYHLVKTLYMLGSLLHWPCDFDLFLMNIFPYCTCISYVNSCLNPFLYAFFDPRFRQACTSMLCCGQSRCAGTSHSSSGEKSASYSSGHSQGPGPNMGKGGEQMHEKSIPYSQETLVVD

Compound: CC(C)C[C@H](NC(=O)[C@H](CCCNC(=N)N)NC(=O)[C@@H]1CCCN1C(=O)[C@@H](CCCNC(=N)N)NC(=O)[C@H](CCC(N)=O)NC(=O)C(C)(C)C(=O)NCCc1cnc[nH]1)C(=O)NC(C)(C)C(=O)N[C@@H](Cc1c[nH]cn1)C(=O)N[C@@H](CC1CCNCC1)C(=O)NCC(=O)N1[C@H](C(=O)N[C@@H](Cc2ccc(Br)cc2)C(=O)N2CCC[C@H]2C(=O)N[C@H](Cc2ccc(OCc3ccccc3)cc2)C(=O)O)C[C@@H]2CCCC[C@@H]21 [Example 42] ({Malonyl(2,2-Me2,histaminyl)}-Q[dR]PRL[Aib]H[Ala(piperidin-4-yl)]G[Oic][Phe(4-Br)]P[dY](Bn)-OH)
- Human Apelin agonist β-arrestin assay Emax: 26

Source: US20230382949A1 (HEPTARES THERAPEUTICS LIMITED, priority 2020, published 2023)
